Details: perfluoroheptane as anti-solvent (Example 5)

C[N+]1(C)CCC(OC(=O)C(O)(c2ccccc2)C2CCCC2)C1 (racemic) [rac-glycopyrronium bromide, (3S,2′R), (3R,2′S)-3-[(cyclopentylhydroxyphenylacetyl)oxy]-1,1-dimethylpyrrolidinium bromide]
physical stability of produced particles: physical stable
